From PubChem BioAssay AID1487 (National Center for Advancing Translational Sciences (NCATS), 2009)
Some of the results follow. Further columns of the screen follow, without active or inactive calls. Most of these compounds were active or inconclusive in the main read-out, so they are no random draw. Words in brackets tell the shape of the fitted curve; partial curves, single points and poor fits give uncertain potencies.

Experiment: qHTS Assay for Modulators of Lamin A Splicing
Settings: HeLa LMNA splicing GFP/RFP minigene ratio, 48 h
Method in brief: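 S3 HeLa stable clones carrying a lamin A-EGFP splicing minigene plus DsRed2 were seeded at 600 cells/well in Opti-MEM with 2% FBS, pin-dosed and incubated 48 h at 37°C. Acumen cytometry (488 nm) gave the GFP/RFP total-intensity ratio.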

[1] = measured here: RFP viability control channel
[2] = measured here: GFP splicing reporter channel

With `Cc1ccc(NC(=O)NC(=O)CSc2nnnn2C)c(C)c1` the AC50 [1] was 2.24 µM [rising, partial curve, poor fit].

For `CCOC(=O)c1sc2nc(CC(=O)OC)nc(N3CCN(c4ccc(OC)cc4)CC3)c2c1C`, the AC50 [1] was 15.8 µM [rising, single point].

With `COc1ccc(C/C(N)=N/OC(=O)c2cccc([N+](=O)[O-])c2)cc1` the AC50 [1] was 0.0891 µM [falling, full curve, poor fit].

For `O=C(Nc1ccc(Oc2ccccc2)cc1)c1ccc(F)c(S(=O)(=O)N2CCN(c3ccccc3F)CC2)c1`, the AC50 [2] was 3.55 µM [falling, partial curve, poor fit] and the AC50 [1] was 5.62 µM [falling, full curve, poor fit].

In the case of `O=[N+]([O-])c1ccc(-c2nc(-c3cccs3)c(-c3cccs3)[nH]2)cc1`, the AC50 [2] is reported as 35.5 µM [falling, single point] and the AC50 [1] is reported as 35.5 µM [falling, single point].

In the case of `Cc1ccc(-c2nc(CSCC(=O)N3CCOCC3)c(C)o2)cc1`, the AC50 [2] is reported as 20 µM [rising, partial curve] and the AC50 [1] is reported as 15.8 µM [rising, partial curve].

With `CN(c1ccccc1)S(=O)(=O)c1cccc(NC(=O)Nc2ccc(Cl)cc2C#N)c1` the AC50 [2] was 35.5 µM [rising, single point].

With `CCc1ccc2ncc(S(=O)(=O)c3ccc(C)c(C)c3)c(N3CCCC3)c2c1` the AC50 [1] was 12.6 µM [rising, single point].

In the case of `Cc1csc(OCC(=O)Nc2ccc(C)c(C)c2)n1`, the AC50 [2] is reported as 11.2 µM [rising, partial curve, poor fit].

For `COc1cccc(-c2csc(N3CCN(C(=O)NC45CC6CC(CC(C6)C4)C5)CC3)n2)c1`, the AC50 [2] was 20 µM [rising, single point] and the AC50 [1] was 22.4 µM [rising, partial curve].

With `O=C(c1cccs1)N1CCC(c2nc(-c3ccc(S(=O)(=O)N4CCOCC4)cc3)no2)CC1` the AC50 [1] was 22.4 µM [rising, single point].

For `CC1(C)OC(=O)C(=CNCCc2ccc(O)cc2)C(=O)O1`, the AC50 [1] was 35.5 µM [rising, single point].

With `Cc1ccccc1NCc1ccc(O)c2ncccc12` the AC50 [2] was 35.5 µM [rising, single point] and the AC50 [1] was 35.5 µM [rising, single point].

With `CC(C)(C)NC(=O)CSc1nc(-c2ccccc2)cc(=O)[nH]1` the AC50 [2] was 0.00794 µM [rising, full curve, poor fit].

In the case of `Cc1cc(NS(=O)(=O)c2cn(C)c(C)n2)ccc1Br`, the AC50 [2] is reported as 3.98 µM [rising, partial curve] and the AC50 [1] is reported as 5.01 µM [rising, partial curve].

With `Cn1c(SCC(=O)c2ccc(F)cc2)nnc1-c1ccccc1N` the AC50 [2] was 10 µM [rising, partial curve] and the AC50 [1] was 12.6 µM [rising, partial curve].

With `O/N=C/c1cn(-c2ccccc2)nc1-c1ccc2c(c1)OCCO2` the AC50 [2] was 11.2 µM [falling, partial curve] and the AC50 [1] was 22.4 µM [falling, partial curve].

For `CCc1ccccc1NC(=O)C1CCN(c2nc3ccccc3[nH]2)CC1`, the AC50 [2] was 0.794 µM [rising, full curve, poor fit].

With `COc1cccc(-c2nc(NCc3cccs3)c3ccccc3n2)c1` the AC50 [2] was 12.6 µM [falling, partial curve] and the AC50 [1] was 12.6 µM [falling, partial curve].

For `O=c1ccc2ccc(O)c(O)c2o1`, the AC50 [2] was 7.94 µM [falling, partial curve, poor fit].

In the case of `COc1ccc(-c2nn(-c3ccccc3)cc2/C=C\C(=O)Nc2ccc(C(=O)O)cc2)cc1`, the AC50 [1] is reported as 25.1 µM [falling, partial curve].

In the case of `CC1(OC(=O)C2CCCC2)C(=O)C=C2C=C(c3ccsc3)N(CCc3ccccn3)C=C2C1=O` (stereo unspecified), the AC50 [1] is reported as 0.0178 µM [falling, single point].

In the case of `O=C1C=CC(=O)C(C2=C3C(=O)N(CCc4ccccc4)CC(=O)N3CCC2)=C1`, the AC50 [2] is reported as 7.08 µM [rising, partial curve, poor fit] and the AC50 [1] is reported as 6.31 µM [falling, partial curve].

With `COC(=O)c1c(NC(=O)c2ccccc2)sc(C(=O)c2ccccc2)c1C` the AC50 [2] was 17.8 µM [falling, single point] and the AC50 [1] was 35.5 µM [falling, single point].

With `C[C@]12C=CC(=O)C=C1CCC1C3CC[C@](O)(C(=O)CO)[C@@]3(C)CC3OC312` (stereo partly specified) the AC50 [2] was 0.00708 µM [falling, full curve, poor fit].

With `O=C(Nc1cc(-c2ccc(F)c(F)c2)no1)c1ccccc1F` the AC50 [1] was 4.47e-05 µM [falling, full curve].

With `O=c1c2c(C(F)(F)F)cc(C(F)(F)F)nc2[nH]n1-c1ccccc1` the AC50 [1] was 35.5 µM [rising, single point].

For `Cc1cccc(Cn2c(SCc3ccc(C(=O)NCc4cccs4)cc3)nc3cccnc32)c1`, the AC50 [2] was 10 µM [falling, partial curve] and the AC50 [1] was 10 µM [falling, partial curve].

For `C/C(=N\O)c1ccc2c3c([nH]c2c1)CCCC3`, the AC50 [1] was 4.47 µM [falling, full curve].

For `CCc1c(C(=O)NNC(=S)NCC(C)C)csc1C`, the AC50 [1] was 35.5 µM [rising, single point].

In the case of `CC(C)c1ccc(NC(=O)c2cc(S(=O)(=O)NC3CCCCC3)ccc2F)cc1`, the AC50 [2] is reported as 15.8 µM [falling, single point] and the AC50 [1] is reported as 31.6 µM [falling, partial curve, poor fit].

With `COc1ccccc1-c1ccc2ncnc(N(C)C)c2c1` the AC50 [2] was 11.2 µM [falling, partial curve] and the AC50 [1] was 3.98 µM [falling, full curve, poor fit].

With `Cc1ccc2[nH]c(CSc3nnc(C)s3)cc(=O)c2c1` the AC50 [2] was 0.447 µM [rising, full curve, poor fit].

For `Cc1ccc(NC(=O)NC(=O)CN2C(=O)NC3(CCCCCCC3)C2=O)c(C)c1`, the AC50 [1] was 20 µM [rising, single point].

For `COc1ccc(-c2cc(C(F)(F)F)nc(NCc3cccs3)n2)cc1`, the AC50 [2] was 31.6 µM [rising, single point] and the AC50 [1] was 35.5 µM [rising, single point].

For `Oc1ccccc1-c1nc(/C=C/c2ccccc2)nn1-c1ccccc1`, the AC50 [2] was 15.8 µM [rising, partial curve] and the AC50 [1] was 22.4 µM [rising, partial curve].

In the case of `CC(NC(=O)/C=C/c1cnc2ccccc2n1)C12CC3CC(CC(C3)C1)C2` (stereo unspecified), the AC50 [1] is reported as 14.1 µM [rising, partial curve].

For `C=CCn1c(C)cc(C(=O)CSc2nc3ccccc3c(=O)[nH]2)c1C`, the AC50 [1] was 4.47 µM [rising, full curve, poor fit].

With `CCN1CCn2c3c(c4cc(Cl)ccc42)CCCC31` (stereo unspecified) the AC50 [1] was 11.2 µM [rising, partial curve].

In the case of `O=C(CN1C(=O)COc2ccc(S(=O)(=O)N3CCCC3)cc21)NCCc1ccc(Cl)cc1`, the AC50 [2] is reported as 3.16 µM [rising, partial curve, poor fit] and the AC50 [1] is reported as 3.55 µM [rising, partial curve, poor fit].

For `Cc1ccccc1NC(=O)c1onc2c1CCCC2`, the AC50 [1] was 0.631 µM [falling, full curve].

With `Cc1cccc(C(=O)N2CCN(c3ncnc4c3cnn4-c3ccccc3)CC2)c1` the AC50 [1] was 14.1 µM [rising, partial curve].

With `Cc1c(C(=O)N2CCCC2)sc(NC(=O)c2ccc(Cl)cc2)c1C#N` the AC50 [1] was 14.1 µM [rising, single point].

For `COc1cc(OC)c(C(=O)CCCN2CCCC2)c(OC)c1`, the AC50 [1] was 0.316 µM [falling, partial curve].

For `CCOc1cc(CN2CCN(c3cccc(C(F)(F)F)c3)CC2)ccc1O`, the AC50 [1] was 31.6 µM [rising, single point].

In the case of `O=[N+]([O-])c1ccc(Nc2ccccc2F)nc1`, the AC50 [2] is reported as 10 µM [rising, single point].

With `COc1ccc(/C=N/OCC(=O)NC(c2ccccc2)c2ccccc2)c(OC)c1` the AC50 [2] was 10 µM [rising, partial curve] and the AC50 [1] was 14.1 µM [rising, single point].

With `COc1ccc(-c2csc(NC(=O)c3ccc(OCC(=O)N4CCOCC4)c(OC)c3)n2)cc1` the AC50 [1] was 14.1 µM [rising, single point].

In the case of `O=C(COc1ccccc1Cl)N1CCN(c2ccc([N+](=O)[O-])c(N3CCOCC3)c2)CC1`, the AC50 [1] is reported as 8.91 µM [rising, partial curve, poor fit].

In the case of `Cc1ccc(SCC(=O)Nc2ccc3oc(-c4ccc(F)cc4)nc3c2)cc1`, the AC50 [2] is reported as 14.1 µM [falling, partial curve, poor fit].

In the case of `N#Cc1cc(C(=O)c2cc(F)ccc2O)cn(-c2nccs2)c1=O`, the AC50 [1] is reported as 28.2 µM [rising, partial curve].

In the case of `O=C(Nc1cccnc1)c1cccs1`, the AC50 [1] is reported as 2.24 µM [rising, full curve].

In the case of `CCOc1ccc(CNC(=O)CCc2c(C)nn(-c3ccc(N4CCOCC4)nn3)c2C)cc1`, the AC50 [2] is reported as 2.24 µM [rising, partial curve, poor fit].

In the case of `O=c1c2ccccc2c(/C=N/c2ncn[nH]2)c(O)n1Cc1ccccc1`, the AC50 [2] is reported as 20 µM [rising, partial curve, poor fit] and the AC50 [1] is reported as 15.8 µM [rising, partial curve].

With `c1ccc2oc(-c3csc(NCC4CCCO4)n3)cc2c1` (stereo unspecified) the AC50 [1] was 0.112 µM [rising, partial curve, poor fit].

For `Cc1cccc(NCc2ccc(O)c3ncccc23)c1C`, the AC50 [2] was 10 µM [falling, partial curve] and the AC50 [1] was 15.8 µM [falling, partial curve].
